According to PubChem BioAssay AID504467 (National Center for Advancing Translational Sciences (NCATS), 2011):
In all, about 330,000 compounds went through this assay and about 7,700 (2.3%) were called active. Inconclusive means that the source gave no clear call. Such entries were picked first, then a sample of the others. The call rests on the fitted dose curve; in most records, active means well fitted inhibition curve with a large enough effect; inconclusive means small, poorly fitted or top-dose-only effect, or effect the other way; inactive means flat fitted curve, though single readings scatter. Potencies of inconclusive entries are doubtful fits and often do not repeat.

experiment: qHTS screen for small molecules that inhibit ELG1-dependent DNA repair in human embryonic kidney (HEK293T) cells expressing luciferase-tagged ELG1; details: HEK293T ELG1-luciferase reporter, luminescence, 16 h, DNA damage induced by 5-fluorouridine; activity change, negative = inhibition: at 46.1 µM (top of the series); further: nearly all actives have a fitted effect of over 55% in size
Outline: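 Luminescence from the luciferase reporter, measured 30 min after ONE-Glo reagent at room temperature, was the read-out. Beforehand, 2,000 cells per well were exposed for 16 hr at 37 °C to 5-fluorouridine together with compound or vehicle.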
On the % scale 0 is the no-effect control and ±100 the full control effect; potency means the concentration at half of the fitted maximal effect.

Structure (SMILES) | Potency | activity change, negative = inhibition
CCS(=O)(=O)c1ccc2c(c1)N(S(=O)(=O)c1ccccc1)CC(C(=O)O)O2 (stereo not given) | inconclusive: 32.6 µM [activator, partial curve, poor fit] | 
O=[N+]([O-])c1ccc(C2=Nc3cc(Cl)ccc3OC2)cc1 | inconclusive: 11.6 µM [activator, partial curve] | 
O=C(Nc1nc(-c2ccccc2)cs1)c1ccccc1F | inconclusive: 14.6 µM [activator, partial curve] | 
Cc1cccc(Oc2nc3ccccn3c(=O)c2/C=C(\C#N)C(=O)NC2CCS(=O)(=O)C2)c1C (stereo not given) | inconclusive: 29.1 µM [inhibitor, single point] | 
C=C(CC)C(=O)c1ccc(OCC(=O)O)c(Cl)c1Cl |  | inactive: -13.5%
Cc1ccc(NC(=O)NCc2ccccn2)c(C)c1 |  | inactive: 24.5%
COC(=O)c1cc(OC)c(OC)cc1NC(=O)CCCCCN1C(=O)CCC1=O | inconclusive: 20.6 µM [inhibitor, single point] | 
C=CCNC(=O)CN1c2cccc3cccc(c23)S1(=O)=O | inconclusive: 6.51 µM [inhibitor, single point] | 
C=C(C)Cc1c(C)c(C#N)c2nc3ccccc3n2c1N1CCCCC1 |  | inactive: -8.85%
CC(=O)COc1ncn(-c2ccccc2)n1 | inconclusive: 20.6 µM [activator, partial curve] | 
O=C(N/N=C/c1c[nH]c2ccccc12)c1cccs1 | inconclusive: 23.1 µM [activator, partial curve] | 
Cc1ccc(-c2ccc(=O)n(Cc3cccc(Br)c3)n2)cc1 |  | inactive: 0%
COc1ccc(/C=N/NC(=O)c2nonc2C)cc1 | inconclusive: 29.1 µM [activator, single point] | 
Cc1nc2cc(-n3ccc(=O)cc3)ccc2n1-c1ccccc1 | inconclusive: 8.91 µM [activator, partial curve, poor fit] | 
COc1ccccc1N(CC(=O)N1CCN(c2ccc(F)cc2)CC1)S(=O)(=O)c1ccc(C)cc1 |  | inactive: -11.9%
CC1=CC(=C2C(=O)c3ccccc3C2=O)C=C(C)O1 | inconclusive: 5.8 µM [activator, partial curve] | 
CCOC(=O)c1cc2c(=O)n3ccccc3nc2n(CCCOC)c1=NC(=O)c1ccncc1 | inconclusive: 20.6 µM [inhibitor, single point] | 
Cc1cc(C(=O)CSc2nc3ccccc3c(=O)[nH]2)c(C)n1C | inconclusive: 14.6 µM [activator, partial curve] | 
O=C(NNC(=O)c1ccccc1Br)c1cnccn1 | inconclusive: 18.3 µM [activator, partial curve, poor fit] | 
O=S(=O)(c1cccs1)N1CCCc2cccc(O)c21 | inconclusive: 7.31 µM [activator, single point] | 
Cc1cccc(C(=O)N/N=C/c2ccccn2)c1 | inconclusive: 20.6 µM [activator, partial curve] | 
CCOC(=O)CCSc1nc(C)c2cc(C)ccc2n1 | inconclusive: 20.6 µM [activator, partial curve] | 
Cc1nc(-c2ccccc2)sc1-c1ccn[nH]1 | inconclusive: 2.31 µM [activator, full curve] | 

3 of the compounds above, as labelled records:
C=CCNC(=O)CN1c2cccc3cccc(c23)S1(=O)=O
  Potency: inconclusive: 6.51 µM [inhibitor, single point]
C=C(C)Cc1c(C)c(C#N)c2nc3ccccc3n2c1N1CCCCC1
  activity change, negative = inhibition: inactive: -8.85%
CC(=O)COc1ncn(-c2ccccc2)n1
  Potency: inconclusive: 20.6 µM [activator, partial curve]

Additional entries.

Structure (SMILES) | Potency | activity change, negative = inhibition
COc1ccc(/C=C(\C#N)C(=O)N2COCC2(C)C)cc1 | inconclusive: 18.3 µM [activator, single point] | 
CCOC(=O)c1csc(NC(=O)CSc2nnnn2-c2ccc3c(c2)OCCO3)n1 | inconclusive: 20.6 µM [inhibitor, partial curve, poor fit] | 
Cc1ccc(S(=O)(=O)Nc2ccc(NC(=O)Nc3cccc(C(F)(F)F)c3)cc2)cc1 | inconclusive: 18.4 µM [inhibitor, partial curve] | 
Cn1cc(/C=C/c2cc[n+](C)cc2)c2cc(Cl)ccc21 | inconclusive: 5.8 µM [inhibitor, single point] | 
COC(=O)c1cccc(NC(=O)c2nn(C(C)C)c(=O)c3ccccc23)c1 |  | inactive: 4.59%
NC(=O)C1CCN(c2nc(-c3ccccc3)nc3ccccc23)CC1 | inconclusive: 20.6 µM [inhibitor, single point] | 
CC(C)c1cc(C(F)(F)F)n2nc(C(=O)Nc3ccc4c(c3)OCO4)cc2n1 | inconclusive: 11.6 µM [activator, partial curve] | 
COCC(=O)Nc1ccc(C(=O)Nc2ccccc2Cl)cc1 | inconclusive: 18.3 µM [activator, partial curve] | 
N/C(=N\OC(=O)c1ccc(Cl)c(Cl)c1)c1ccccn1 | inconclusive: 8.2 µM [activator, partial curve] | 
Cc1ccc(/C=N/n2c(C3CCCCC3)n[nH]c2=S)s1 |  | inactive: 21.2%
Cc1ccc(/C=C(\NC(=O)c2ccc(C)cc2)c2nc(=S)[nH][nH]2)cc1 | inconclusive: 29.1 µM [inhibitor, single point] | 
COc1ccc2c(c1)C1CC(C)(NC(=O)C1S(=O)(=O)c1ccc(F)cc1)O2 (stereo not given) |  | inactive: -2.14%
COc1ccc(C(=O)NCC(=O)OCC(=O)NCc2ccc3c(c2)OCO3)cc1 |  | inactive: 13.2%
Cc1noc(C)c1NC(=O)Nc1ccc2c(c1)C(=O)N([C@H](C)CO)C[C@H](C)[C@@H](CN(C)S(=O)(=O)c1ccccc1)O2 | inconclusive: 29.1 µM [activator, partial curve, poor fit] | 
O=C1N=C(N2CCN(Cc3ccccc3)CC2)S/C1=C/c1cccs1 |  | inactive: 0%
Cn1c(=O)c2c(nc(Oc3cccc(O)c3)n2C)n(C)c1=O |  | inactive: -18.2%
CCCN(Cc1ccccc1)C(=S)Nc1ccc(F)cc1 |  | inactive: -8.04%
CCN(CC)c1ccc(/C=N\NC(=O)c2cccc3cc[nH]c23)cc1 | inconclusive: 29.1 µM [activator, single point] | 
OCCC1CN(Cc2cccc3nonc23)CCN1C1CCCCC1 (stereo not given) |  | inactive: -20.7%
COc1ccc(NC(=O)CCS(=O)(=O)c2cc3c(cc2Cl)NC(=O)CO3)cc1OC |  | inactive: 16.1%
CCOC(=O)C(=O)Nc1ccccc1C(=O)OCC | inconclusive: 29.1 µM [activator, single point] | 
FC(F)(F)c1cccc(Cn2c3[n+](c4ccc(C(F)(F)F)cc42)CCCCC3)c1 | inconclusive: 5.17 µM [inhibitor, full curve, poor fit] | 
